1 sequence from article PMC6265327 can be followed below.

The exact form of at least one protein or probe is not confirmed.

Series [1] relates to CMG helicase (Cdc45-MCM-GINS) + Pol epsilon exo-. As to the kind of experiment: cryo-EM structure (4.9 A). As to conditions: ATPgS, 10 mM Mg(OAc)2; 5' desthiobiotin-TEG on strand 1; recombinant protein; protein details: FLAG,CBP; label: 5' desthiobiotin-TEG.
For series [2] the test system is unchanged. In words: pull-down (desthiobiotin fork on streptavidin beads). The settings on record: 2 mM ATPgS, 10 mM Mg(OAc)2, 5' desthiobiotin-TEG on strand 1, pull-down: 25 mM HEPES 7.6, 100 mM KOAc, 10 mM Mg(OAc)2, 10% glycerol, 0.01% NP-40, 1 mM DTT, 30 C, recombinant protein, protein details: FLAG,CBP, label: 5' desthiobiotin-TEG.

In the case of “GCAGCCACGCTGGCCGTTTTACAACGTCGTGACTGGGCACTTGATCGGCCAACCTTTTTTTTTTTTTTTTTTTTTTTTTTTTTTTTTTTTTTTT / GGCAGGCAGGCAGGCAGGCAGGCCGTGCGCGTGGTCGTGCGGTTGGCCGATCAAGTGCCCAGTCACGACGTTGTAAAACGGCCAGCGTGGCTGC [Model fork DNA (leading/lagging-strand templates)]”, the binding result in series [1] and in series [2] was “binds” throughout.
